Reference: publication PMC5171795
The exact form of at least one protein or probe is not confirmed. Results from cells or extracts need not show a direct contact. For part of these data: Weaker means in comparison with the reference protein, sequence or condition of that experiment.

Sequences of proteins named here, by UniProt entry; tags and fusion partners are left off.
UniProt P42225, whole entry, stated change not applied: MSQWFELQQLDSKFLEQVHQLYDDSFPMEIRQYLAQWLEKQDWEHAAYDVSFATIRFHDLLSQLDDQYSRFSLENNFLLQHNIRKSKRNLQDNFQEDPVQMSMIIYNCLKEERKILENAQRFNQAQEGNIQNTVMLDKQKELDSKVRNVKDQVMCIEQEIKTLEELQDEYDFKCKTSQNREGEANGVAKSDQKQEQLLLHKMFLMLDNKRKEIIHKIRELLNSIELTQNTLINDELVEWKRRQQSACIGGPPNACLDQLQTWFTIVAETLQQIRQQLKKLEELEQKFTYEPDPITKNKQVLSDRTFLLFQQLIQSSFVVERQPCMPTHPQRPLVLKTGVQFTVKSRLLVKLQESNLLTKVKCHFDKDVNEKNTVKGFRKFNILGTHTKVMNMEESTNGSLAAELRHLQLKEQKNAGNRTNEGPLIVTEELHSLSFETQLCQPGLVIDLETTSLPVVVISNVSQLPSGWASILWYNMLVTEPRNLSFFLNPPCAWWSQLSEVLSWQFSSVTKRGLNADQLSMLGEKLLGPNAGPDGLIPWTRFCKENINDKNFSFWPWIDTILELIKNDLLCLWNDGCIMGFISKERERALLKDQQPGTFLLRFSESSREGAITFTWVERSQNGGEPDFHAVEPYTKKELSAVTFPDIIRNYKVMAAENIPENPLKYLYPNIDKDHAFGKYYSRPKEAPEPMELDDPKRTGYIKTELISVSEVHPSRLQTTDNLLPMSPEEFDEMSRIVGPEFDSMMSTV

Experiments:
Test in all cases: EMSA supershift
[1] = target: STAT1 (ΔTsc1 osteoblast extract) (mouse) (UniProt P42225); conditions: ΔTsc1 extract, binding elevated vs control; 2 ug nuclear protein, Thermo Scientific EMSA kit binding buffer (composition and pH not given), 30 min, room temperature; 6% polyacrylamide gel in Tris-borate EDTA; protein in an extract; label: biotin
STAT1 (mouse) = STAT1 (mouse) (UniProt P42225); conditions: 200x unlabelled self probe competes, anti-STAT1 reduces band and supershifts; 2 ug nuclear protein, Thermo Scientific EMSA kit binding buffer (composition and pH not given), 30 min, room temperature; 6% polyacrylamide gel in Tris-borate EDTA; protein in an extract; label: biotin
[2] = target: STAT1 (ΔRaptor osteoblast extract) (mouse) (UniProt P42225); conditions: ΔRaptor extract, binding decreased vs control; 2 ug nuclear protein, Thermo Scientific EMSA kit binding buffer (composition and pH not given), 30 min, room temperature; 6% polyacrylamide gel in Tris-borate EDTA; protein in an extract; label: biotin

“CCTTACTATAAACTCC (double strand) [Cxcl9 promoter γ-RE1 STAT1-binding-site probe]”: binds [1]; binds (STAT1 (mouse)); binds more weakly [2].
